Data as given in the supplement of paper PMC4604168 (melanoma cell lines).
The other results are listed elsewhere or left out. Single values are uncertain, as repeats are few or missing.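 Imaging used 1,536-well plates; nuclei positive for cleaved PARP by antibody were divided by total DNA-stained nuclei to yield the apoptosis fraction. Doses for screening kept most cells viable, and cell lines differ markedly in resting and induced cleaved-PARP levels.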

system: CBRC016 (line from a melanoma biopsy); experiment: cleaved PARP positive nuclei fraction relative to DMSO control; melanoma cells; higher = more apoptosis; conditions: library dose: low library concentration; 72 h

Row | Structure (SMILES) | cleaved PARP positive nuclei fraction [%]
1 | Nc1cccc2c1CN(C1CCC(=O)NC1=O)C2=O (stereo not drawn) [lenalidomide] + Cn1cc(/C=C2\C(=O)Nc3cccnc32)c2ccccc21 [GW441756] (first compound 1 µM, partner dose 0.4 µM) | 133
2 | Cc1nc(Nc2ncc(C(=O)Nc3c(C)cccc3Cl)s2)cc(N2CCN(CCO)CC2)n1 [dasatanib] + c1cc(-c2cnn3cc(-c4ccc(OCCN5CCCCC5)cc4)cnc23)ccn1 [Dorsomorphin] (first compound 0.004 µM, partner dose 0.4 µM) | 42.8
3 | Cn1cncc1[C@@](N)(c1ccc(Cl)cc1)c1ccc2c(c1)c(-c1cccc(Cl)c1)cc(=O)n2C [tipifarnib] + O=C(O)C(=O)Nc1sc2c(c1C(=O)O)CCNC2 [TCS401] (first compound 0.01 µM, partner dose 1.66667 µM) | 47.4
4 | Cn1c(Nc2ccc(C(F)(F)F)cc2)nc2cc(Oc3ccnc(-c4ncc(C(F)(F)F)[nH]4)c3)ccc21 + O=C(Nc1ccccc1)c1cc([N+](=O)[O-])ccc1Cl [GW9662] (first compound 0.08 µM, partner dose 2 µM) | 109
5 | Cn1cncc1[C@@](N)(c1ccc(Cl)cc1)c1ccc2c(c1)c(-c1cccc(Cl)c1)cc(=O)n2C [tipifarnib] + Oc1nc(-c2ccc(C(F)(F)F)cc2)nc2c1CSCC2 [XAV939] (first compound 0.01 µM, partner dose 2 µM) | 61.1
6 | Cn1nnc2c(C(N)=O)ncn2c1=O [temozolomide] + COc1ccc2c(c1)CCC1C2CCC2(C)C(NCCCCCCN3C(=O)C=CC3=O)CCC12 [U73122] (first compound 2 µM, partner dose 0.4 µM) | 92.9

system: CBRC017 (line from a melanoma biopsy); experiment: as above; conditions: library dose: low library concentration; 72 h

Row | Structure (SMILES) | cleaved PARP positive nuclei fraction [%]
7 | OCCn1cc(-c2cnc3nnn(Cc4ccc5ncccc5c4)c3n2)cn1 + Oc1cc(-c2nc(-c3ccccc3)[nH]c2-c2ccncc2)ccc1Cl [L779450] (first compound 1 µM, partner dose 0.2 µM) | 101
8 | CO[C@@H]1[C@H](N(C)C(=O)c2ccccc2)C[C@H]2O[C@]1(C)n1c3ccccc3c3c4c(c5c6ccccc6n2c5c31)C(=O)NC4 [Midostaurin] + O=C(Nc1ccccc1)c1cc([N+](=O)[O-])ccc1Cl [GW9662] (first compound 0.08 µM, partner dose 2 µM) | 97.4
9 | CC1(C)NC(=O)N(c2ccc([N+](=O)[O-])c(C(F)(F)F)c2)C1=O [nilutamide] + COC(=O)c1sccc1S(=O)(=O)Nc1ccc(Nc2ccccc2)cc1OC [GSK0660] (first compound 1 µM, partner dose 1 µM) | 74.2
10 | Cc1nc(Nc2ncc(C(=O)Nc3c(C)cccc3Cl)s2)cc(N2CCN(CCO)CC2)n1 [dasatanib] + Cc1cc([N+](=O)[O-])ccc1NS(=O)(=O)c1cc(Cl)ccc1Cl [FH535] (first compound 0.004 µM, partner dose 1 µM) | 291
11 | C[C@@H]1CCN(C(=O)CC#N)C[C@@H]1N(C)c1ncnc2[nH]ccc12 + O=C(Nc1ccccc1)c1cc([N+](=O)[O-])ccc1Cl [GW9662] (first compound 1 µM, partner dose 2 µM) | 71
12 | C=CCn1c(=O)c2cnc(Nc3ccc(N4CCN(C)CC4)cc3)nc2n1-c1cccc(C(C)(C)O)n1 + O=c1cc(-c2cccc3c2Sc2ccccc2S3)oc(N2CCOCC2)c1 [KU55933] (first compound 0.02 µM, partner dose 1 µM) | 117
13 | Cc1ccc(NC(=O)c2cccc(N(C)C)c2)cc1NC(=O)c1ccc(O)cc1 + N#Cc1c(O)c2c(-c3ccc(-c4ccccc4O)cc3)csc2[nH]c1=O [A769662] (first compound 2 µM, partner dose 2 µM) | 196
14 | Cc1cc(N2CCOCC2)cc2[nH]c(-c3c(NC[C@@H](O)c4cccc(Cl)c4)cc[nH]c3=O)nc12 + O=C(O)C(=O)Nc1sc2c(c1C(=O)O)CCNC2 [TCS401] (first compound 0.2 µM, partner dose 1.66667 µM) | 63.1
15 | C=CCn1c(=O)c2cnc(Nc3ccc(N4CCN(C)CC4)cc3)nc2n1-c1cccc(C(C)(C)O)n1 + CCN(CC)CCCCNc1ncc2cc(-c3cc(OC)cc(OC)c3)c(NC(=O)NC(C)(C)C)nc2n1 [PD173074] (first compound 0.02 µM, partner dose 0.1 µM) | 98.7
16 | Cc1cc(N2CCOCC2)cc2[nH]c(-c3c(NC[C@@H](O)c4cccc(Cl)c4)cc[nH]c3=O)nc12 + O=c1cc(-c2cccc3c2Sc2ccccc2S3)oc(N2CCOCC2)c1 [KU55933] (first compound 0.2 µM, partner dose 1 µM) | 86
17 | C#Cc1cccc(Nc2ncnc3cc(OCCOC)c(OCCOC)cc23)c1 [erlotinib] + O=c1cc(-c2cccc3c2Sc2ccccc2S3)oc(N2CCOCC2)c1 [KU55933] (first compound 0.8 µM, partner dose 1 µM) | 85.2
18 | Cn1c(Nc2ccc(C(F)(F)F)cc2)nc2cc(Oc3ccnc(-c4ncc(C(F)(F)F)[nH]4)c3)ccc21 + O=C1NC(=O)/C(=C/c2ccc(-c3ccc(F)cc3O)o2)S1 [AS252424] (first compound 0.08 µM, partner dose 1 µM) | 92
19 | NC(=O)Nc1cc(-c2cccc(F)c2)sc1C(=O)N[C@H]1CCCNC1 + CCCCCCCCCCCC1=C(O)C(=O)C=C(O)C1=O [Embelin] (first compound 0.02 µM, partner dose 1.2 µM) | 72.6
20 | C=CCn1c(=O)c2cnc(Nc3ccc(N4CCN(C)CC4)cc3)nc2n1-c1cccc(C(C)(C)O)n1 + COc1cc2ncnc(Nc3ccc(Oc4ccccc4)cc3)c2cc1OC [SrcI1] (first compound 0.02 µM, partner dose 2 µM) | 96.5
21 | Cn1c(Nc2ccc(C(F)(F)F)cc2)nc2cc(Oc3ccnc(-c4ncc(C(F)(F)F)[nH]4)c3)ccc21 + N#Cc1c(O)c2c(-c3ccc(-c4ccccc4O)cc3)csc2[nH]c1=O [A769662] (first compound 0.08 µM, partner dose 2 µM) | 93.8
22 | Cn1nnc2c(C(N)=O)ncn2c1=O [temozolomide] + COc1cc(N2CCC(N3CCN(C)CC3)CC2)ccc1Nc1ncc(Cl)c(Nc2ccccc2S(=O)(=O)C(C)C)n1 [NVP-TAE684] (first compound 2 µM, partner dose 0.08 µM) | 82.5
23 | O=C(CCCCCCC(=O)Nc1ccccc1)NO [vorinostat] + COc1ccc(COc2ccc(Cc3cnc(N)nc3N)cc2OC)cc1 [GW2580] (first compound 0.08 µM, partner dose 1 µM) | 85.8
24 | C#Cc1cccc(Nc2ncnc3cc(OCCOC)c(OCCOC)cc23)c1 [erlotinib] + Oc1cc(-c2nc(-c3ccccc3)[nH]c2-c2ccncc2)ccc1Cl [L779450] (first compound 0.8 µM, partner dose 0.2 µM) | 72.7
25 | C#Cc1cccc(Nc2ncnc3cc(OCCOC)c(OCCOC)cc23)c1 [erlotinib] + N#Cc1c(O)c2c(-c3ccc(-c4ccccc4O)cc3)csc2[nH]c1=O [A769662] (first compound 0.8 µM, partner dose 2 µM) | 76.8
26 | COCC[n+]1c2c(n(Cc3cnccn3)c1C)C(=O)c1ccccc1C2=O + COc1ccc(-c2ccc3c(N4CCOCC4)nc(N4C[C@@H](C)O[C@@H](C)C4)nc3n2)cc1CO [KU0063794] (first compound 0.0004 µM, partner dose 0.02 µM) | 80.8
27 | COc1cc(Nc2ncc(F)c(Nc3ccc4c(n3)NC(=O)C(C)(C)O4)n2)cc(OC)c1OC [Tamatinib] + O=C1NC(=O)/C(=C/c2ccc(-c3ccc(F)cc3O)o2)S1 [AS252424] (first compound 0.4 µM, partner dose 1 µM) | 77.4
28 | OCCn1cc(-c2cnc3nnn(Cc4ccc5ncccc5c4)c3n2)cn1 + Cc1cc([N+](=O)[O-])ccc1NS(=O)(=O)c1cc(Cl)ccc1Cl [FH535] (first compound 1 µM, partner dose 1 µM) | 259
29 | Nc1cccc2c1CN(C1CCC(=O)NC1=O)C2=O (stereo not drawn) [lenalidomide] + CCN(CC)CCCCNc1ncc2cc(-c3cc(OC)cc(OC)c3)c(NC(=O)NC(C)(C)C)nc2n1 [PD173074] (first compound 1 µM, partner dose 0.1 µM) | 86.7
30 | C[C@@H]1CCN(C(=O)CC#N)C[C@@H]1N(C)c1ncnc2[nH]ccc12 + O=C(O)C(=O)Nc1sc2c(c1C(=O)O)CCNC2 [TCS401] (first compound 1 µM, partner dose 1.66667 µM) | 73.5
31 | OCCn1cc(-c2cnc3nnn(Cc4ccc5ncccc5c4)c3n2)cn1 + COc1ccc2c(c1)CCC1C2CCC2(C)C(NCCCCCCN3C(=O)C=CC3=O)CCC12 [U73122] (first compound 1 µM, partner dose 0.4 µM) | 83.9
32 | Cc1cc(N2CCOCC2)cc2[nH]c(-c3c(NC[C@@H](O)c4cccc(Cl)c4)cc[nH]c3=O)nc12 + O=C(Nc1ccccc1)c1cc([N+](=O)[O-])ccc1Cl [GW9662] (first compound 0.2 µM, partner dose 2 µM) | 76.4
33 | Nc1cccc2c1CN(C1CCC(=O)NC1=O)C2=O (stereo not drawn) [lenalidomide] + O=C(Nc1ccccc1)c1cc([N+](=O)[O-])ccc1Cl [GW9662] (first compound 1 µM, partner dose 2 µM) | 86

Copied from the list:
Under cleaved PARP positive nuclei fraction [%], COCC[n+]1c2c(n(Cc3cnccn3)c1C)C(=O)c1ccccc1C2=O + COc1ccc(-c2ccc3c(N4CCOCC4)nc(N4C[C@@H](C)O[C@@H](C)C4)nc3n2)cc1CO [KU0063794] (first compound 0.0004 µM, partner dose 0.02 µM) is listed with 80.8
Under cleaved PARP positive nuclei fraction [%], O=C(CCCCCCC(=O)Nc1ccccc1)NO [vorinostat] + COc1ccc(COc2ccc(Cc3cnc(N)nc3N)cc2OC)cc1 [GW2580] (first compound 0.08 µM, partner dose 1 µM) is listed with 85.8
